As usually defined, the pIC50 is −log10 of the IC50, conventionally taken in molar units.

Sequences of proteins named here, by UniProt entry; tags and fusion partners are left off. A change or cut given only in a name is not applied to a line headed by its entry.
UniProt O15379: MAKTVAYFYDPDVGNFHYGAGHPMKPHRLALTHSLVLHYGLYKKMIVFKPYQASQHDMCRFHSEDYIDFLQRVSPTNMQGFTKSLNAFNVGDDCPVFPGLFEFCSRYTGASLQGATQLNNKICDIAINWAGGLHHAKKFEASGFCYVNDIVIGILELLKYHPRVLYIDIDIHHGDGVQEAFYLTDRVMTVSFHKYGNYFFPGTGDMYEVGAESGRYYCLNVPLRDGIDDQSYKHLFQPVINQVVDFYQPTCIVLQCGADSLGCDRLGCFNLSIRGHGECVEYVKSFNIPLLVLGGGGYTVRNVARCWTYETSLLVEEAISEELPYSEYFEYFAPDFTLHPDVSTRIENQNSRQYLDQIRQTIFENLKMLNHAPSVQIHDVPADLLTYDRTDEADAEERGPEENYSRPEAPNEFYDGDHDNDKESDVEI

pIC50: −log10 of the molar value.

The test has as its target Histone deacetylase 3 (Homo sapiens, UniProt O15379). In words: Inhibition of recombinant HDAC3 (unknown origin)incubated for 15 mins before substrate addition and measured after 30 to 45 mins by HDAC-Glo substrate. The method, boiled down: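 HDAC isoforms captured from HeLa cell lysate with plate-bound isoform-specific antibodies (lysate 100 µg/mL for HDAC1/2, 1 mg/mL for HDAC3/6); inhibitor in DMSO preincubated 15 min at room temperature, then HDAC-Glo substrate/developer 30–45 min; luminescence, background-corrected against no-antibody wells; % activity vs DMSO control; at least two independent trials, mean ± standard error. Concentrations are final.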

On to `CCCCCCCC(=O)SCC/C=C/[C@@H]1CC(=O)NCc2nc(cs2)C2=N[C@@](C)(CS2)C(=O)N[C@@H](C(C)C)C(=O)O1` [LARGAZOLE], for which the pIC50 is 7.30.

(Values after ChEMBL document CHEMBL4680097 (J Med Chem, 2016).)
